# “And” between values parts separate entries of the source, which are not always exact repeats. Identical values can stand only once. The campaign covered roughly 320,000 compounds. About 22,000 (6.9%) were called active. Inconclusive means that the source gave no clear call. Such entries were picked first, then a sample of the others. Calls follow the shape of the dose curve; as a rule, active = well fitted inhibition curve with a large enough effect; inconclusive = small, poorly fitted or top-dose-only effect, or another doubt; inactive = no such curve, though single readings can be large or run the other way. Potencies of inconclusive entries are doubtful fits and often do not repeat.
# Assay: Primary qHTS for delayed death inhibitors of the malarial parasite plastid, 96 hour incubation
# Conditions: P. falciparum luciferase reporter growth; series mostly up to 28.7 µM; activity change, negative = inhibition: at the top concentration
# Outline: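 Erythrocytes infected with luciferase-expressing P. falciparum were dispensed at 2% hematocrit and 0.05% parasitemia (final), then incubated with compounds 96 hours at 37 C in 5% CO2. Luminescence after detection reagent addition reported growth.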
# % is scaled to controls: 0 for no effect and ±100 for the full control effect; potency is read from the fitted curve at half-maximal effect.
Compound,Potency,"activity change, negative = inhibition"
Cc1ccccc1C(=O)NCC(=O)OC(C)C(=O)NC(C)CCc1ccccc1 (stereo unspecified),active: 11.7 µM,
COc1ccc(C(C)=O)cc1CSCCC#N,"inconclusive: 20.8 µM [inhibitor, partial curve, poor fit]",
COc1ccc(NC(=O)CN2CCN(CC(=O)Nc3ccc(F)cc3)CC2)c(OC)c1,"inconclusive: 7.38 µM [inhibitor, partial curve, poor fit]",
Cc1ccc(N(C(=O)c2csnn2)C(C(=O)NC2CCCCC2)c2cccnc2)c(C)c1 (stereo unspecified),"inconclusive: 10.4 µM [inhibitor, partial curve, poor fit]",
C=CCN1C(=O)C2(OCCCO2)c2cc(C)ccc21,,inactive: -19.7%
COCCNC(=O)c1onc(CCl)c1C(=O)OC,"inconclusive: 0.465 µM [inhibitor, full curve, poor fit]",
CC(Oc1cc2oc(=O)c3c(c2cc1Cl)CCC3)C(=O)N1C[C@H]2C[C@@H](C1)c1cccc(=O)n1C2 (stereo partly specified),"inconclusive: 18.5 µM [inhibitor, single point]",
Cc1cc(C)c(S(=O)(=O)N2CCCOC2CNC(=O)C(=O)NCc2cccs2)c(C)c1 (stereo unspecified),"inconclusive: 11.7 µM [inhibitor, single point]",
CN(CC(=O)Nc1cccc(F)c1)C(=O)CN1C(=O)C2CCCCC2C1=O (stereo unspecified),,inactive: -23.2%
COC(=O)NC(NC(=S)Nc1ccccc1OC)C(Cl)(Cl)Cl (stereo unspecified),"inconclusive: 11.7 µM [inhibitor, single point]",
COc1ccc(Cc2c(O)nc(SCC(=O)NC34CC5CC(CC(C5)C3)C4)[nH]c2=O)cc1,"inconclusive: 3.7 µM [inhibitor, partial curve, poor fit] and inconclusive: 1.04 µM [inhibitor, partial curve, poor fit]",
N#C/C(=C1\CCCN1)c1nc2ccccc2c(=O)[nH]1,"inconclusive: 2.08 µM [inhibitor, partial curve, poor fit]",
N#Cc1ccc(CSc2nnc(NC(=O)c3ccc(=O)[nH]c3)s2)cc1,"inconclusive: 18.5 µM [inhibitor, single point]",
CC1CC(=O)N(CC(=O)Nc2cccc(Cl)c2)c2ccccc2S1(=O)=O (stereo unspecified),,inactive: -29.7%
CC(NC(=O)Cc1ccsc1)c1ccc(F)cc1 (stereo unspecified),,inactive: 7.02%
[O-][n+]1c(/C=C/c2ccccc2)ccc2ccccc21,active: 6.57 µM,
Cc1ccc(-c2nnc(-c3ccccc3)o2)cc1,"inconclusive: 9.28 µM [inhibitor, partial curve, poor fit]",
COC(=O)c1sc(NC(=O)COc2ccccc2OC)nc1C,,inactive: 228%
NNC(=O)Cc1cn(-c2ncc(C(F)(F)F)cc2Cl)c2ccccc12,"inconclusive: 18.5 µM [inhibitor, single point]",
CSCCOC(=O)c1[nH]c2c(c1C)C(=O)CC(c1ccco1)C2 (stereo unspecified),active: 3.7 µM,
CCn1c(=O)c(C(=O)NCc2ccc(OC)c(OC)c2)c(O)c2ccccc21,"inconclusive: 14.7 µM [inhibitor, partial curve, poor fit]",

Compound,Potency,"activity change, negative = inhibition"
CC(=O)c1cccc(NS(=O)(=O)c2ccc(N/C=C\C(=O)c3ccc(F)cc3)cc2)c1,"inconclusive: 18.5 µM [inhibitor, single point]",
COCCNC(=O)C(c1ccncc1)N(Cc1ccccc1)C(=O)Cn1nnc2ccccc21 (stereo unspecified),"inconclusive: 13.1 µM [inhibitor, partial curve, poor fit]",
Cc1ccc(S(=O)(=O)NCC(=O)OCc2ccccc2Br)cc1,active: 9.28 µM,
Cc1ccnc(NC(=S)NC(=O)/C=C/c2ccccc2)c1,,inactive: 29.9%
COCCCNC(=O)Cc1ccc(S(=O)(=O)N2CCOCC2)s1,"inconclusive: 16.5 µM [inhibitor, partial curve, poor fit]",
O=C(O)CCC(=O)NCC1OCCc2ccccc21 (stereo unspecified),"inconclusive: 11.7 µM [inhibitor, partial curve, poor fit]",
N=c1c2c(ncn1CCCO)Oc1c(ccc3ccccc13)C2c1ccccc1 (stereo unspecified),"inconclusive: 5.86 µM [inhibitor, partial curve, poor fit]",
Cc1ccc([C@@H]2[C@@H]3C(=O)N(c4ccccc4)C(=O)[C@@H]3[C@]3(C)C(=O)N(Cc4ccc(-c5ccccc5)cc4)CC(=O)N23)o1,,inactive: -0.64%
COc1cccc(-c2nn(C)c3sc(C(=O)N4CCN(c5ccccn5)CC4)cc23)c1,"inconclusive: 14.7 µM [inhibitor, partial curve, poor fit]",
Cc1ccc(N(CC(=O)N2CCCCCC2)S(C)(=O)=O)cc1Cl,active: 7.38 µM,
CCN(Cc1nc2cc(Cl)ccc2c(=O)[nH]1)C(=O)COc1ccccc1Cc1ccccc1,"inconclusive: 18.5 µM [inhibitor, single point]",
O=S(=O)(c1ccccc1)N(CC1CO1)c1cccc2ccccc12 (stereo unspecified),"inconclusive: 13.1 µM [inhibitor, partial curve, poor fit]",
COc1ccccc1NS(=O)(=O)c1ccc(NN=C2CCCC2)c([N+](=O)[O-])c1,active: 11.7 µM,
COc1cc(C(=S)N2CCCCC2)ccc1OCC(=O)N1CCCC1,"inconclusive: 18.5 µM [inhibitor, single point]",
CCN(Cc1cccs1)C(=O)CN1CCN(S(=O)(=O)c2ccc3c(c2)OCCCO3)CC1,"inconclusive: 18.5 µM [inhibitor, single point]",
Cc1n[nH]c(C)c1S(=O)(=O)N1CCN(C2CCCCC2)CC1,"inconclusive: 11.7 µM [inhibitor, single point]",
CCC1(CC)Cc2ccccc2-c2nc(CN(C)C)[nH]c(=O)c21,"inconclusive: 4.15 µM [inhibitor, partial curve, poor fit]",
C[C@@H]1CN=C2N(CCNC(=O)CCC3CCCCC3)[C@H](Cc3ccc(O)cc3)CN21,active: 13.1 µM,
O=C(NCCc1c[nH]c2ccccc12)C(=O)NCC(c1ccco1)N1CCN(c2ccccc2)CC1 (stereo unspecified),"inconclusive: 18.5 µM [inhibitor, single point]",
Cc1ccc(S(=O)(=O)NCCNc2ccc([N+](=O)[O-])cc2)cc1,"inconclusive: 11.7 µM [inhibitor, single point]",
